In CN117624352A:
These are yes or no findings as the source states them, for the method shown. Some entries that bind do so weakly or less than the wild type. Tags and fused reporters may be left off the sequences shown.

Molecular target: T1, Tmem176b表达纯化抗原142-196aa xy02b-hFc-6His(Abclonal) (mouse) (UniProt Q9R1Q6)
T1 sequence (looked up): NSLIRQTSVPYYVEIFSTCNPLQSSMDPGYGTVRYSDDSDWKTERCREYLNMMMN
Assay: Capture ELISA

B1: Tmem176b单克隆抗体6E8 (antibody, V domains shown)
VH: QSVEESGGRLLKPDETLTLTCTVSGFSLSSYAMSWVRQAPGKGLEWIGIISIRGNTYYASWAKGRFTISKTSTTVDLKITSPTTEDTATYFCARNTLYSSGWGGSDLWGQGTLVTVSS
VL: AQVLTQTPSPVSAAVGGTVTINCQASQSVYNNNNLAWYQQKPGQPPKLLIYYASTLASGVSSRFKGSGSGTQFTLTISGVQCDDAATYYCQGEFSCSSADCNAFGGGTEVVVKG
binding: binds
